Results taken from publication PMC4489804.
No constants are given. Whether binding was seen depends on the method and setting. In cells and extracts the contact can be indirect. Some entries that bind do so weakly or less than the wild type. For some assays here: Where a sequence is shown, tags or fusion partners need not be part of it.

Protein sequences, listed by entry. Tags and fused reporters are not part of them.
UniProt Q9FY89: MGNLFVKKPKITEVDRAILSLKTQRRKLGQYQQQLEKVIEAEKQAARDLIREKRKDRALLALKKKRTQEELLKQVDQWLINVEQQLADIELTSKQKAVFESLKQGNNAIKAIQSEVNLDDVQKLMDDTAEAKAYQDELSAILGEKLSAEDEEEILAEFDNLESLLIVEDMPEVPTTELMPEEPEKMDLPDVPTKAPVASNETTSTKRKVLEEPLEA

T1: VPS25-YFPC (UniProt Q8VZC9)
T1 sequence: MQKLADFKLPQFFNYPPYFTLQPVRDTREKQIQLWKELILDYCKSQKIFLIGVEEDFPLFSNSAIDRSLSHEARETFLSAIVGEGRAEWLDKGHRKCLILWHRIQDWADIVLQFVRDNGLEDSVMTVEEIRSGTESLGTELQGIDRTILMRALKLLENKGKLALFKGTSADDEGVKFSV

T2: YFPN-GL1 (UniProt P27900)
T2 sequence: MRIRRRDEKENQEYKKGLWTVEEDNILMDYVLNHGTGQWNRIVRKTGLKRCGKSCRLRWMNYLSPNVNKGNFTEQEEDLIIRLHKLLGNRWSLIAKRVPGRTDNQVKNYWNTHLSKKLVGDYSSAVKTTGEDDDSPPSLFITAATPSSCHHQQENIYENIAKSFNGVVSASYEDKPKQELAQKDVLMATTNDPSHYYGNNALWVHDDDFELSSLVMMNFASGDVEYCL

B1: YFPC-AtMYC1 (protein, UniProt Q8W2F1 1-526)
chain: MSLTMADGVEAAAGRSKRQNSLLRKQLALAVRSVQWSYAIFWSSSLTQPGVLEWGEGCYNGDMKKRKKSYESHYKYGLQKSKELRKLYLSMLEGDSGTTVSTTHDNLNDDDDNCHSTSMMLSPDDLSDEEWYYLVSMSYVFSPSQCLPGRASATGETIWLCNAQYAENKLFSRSLLARSASIQTVVCFPYLGGVIELGVTELISEDHNLLRNIKSCLMEISAHQDNDDEKKMEIKISEEKHQLPLGISDEDLHYKRTISTVLNYSADRSGKNDKNIRHRQPNIVTSEPGSSFLRWKQCEQQVSGFVQKKKSQNVLRKILHDVPLMHTKRMFPSQNSGLNQDDPSDRRKENEKFSVLRTMVPTVNEVDKESILNNTIKYLQELEARVEELESCMGSVNFVERQRKTTENLNDSVLIEETSGNYDDSTKIDDNSGETEQVTVFRDKTHLRVKLKETEVVIEVRCSYRDYIVADIMETLSNLHMDAFSVRSHTLNKFLTLNLKAKFRGAAVASVGMIKRELRRVIGDLF

Experiments:
VPS25-YFPC = target: T1, VPS25-YFPC; test: split reporter; BiFC with YFPN and YFPC fusions under the 35S promoter in transiently transformed N. benthamiana leaf epidermis cells, 72 h post-transfection; DCP2-mCHERRY or free RFP coexpressed
YFPN-GL1 = target: T2, YFPN-GL1; test: as above

Row | Molecule | binding (VPS25-YFPC) | binding (YFPN-GL1)
1 | VPS20.2-YFPN (from UniProt Q9FY89 1-216) | binds | 
2 | B1 |  | binds
